This note sets out measurements from paper PMC2991254.

No constants are given. Whether binding was seen depends on the method and setting.

Experiment [1] addresses SVP2 (Arabidopsis thaliana). Nature of the experiment: two-hybrid; matrix-based yeast two-hybrid, GAL4-AD and GAL4-BD fusions (pDEST22, pDEST32), in duplicate, at least two reporter genes; medium lacking Leu, Trp and His with 1 mM 3-amino-1,2,4-triazole, growth scored after 4 days at 20°C. A general note: A reporter such as luciferase makes a cellular process visible.
Experiment [2] concerns the target ABSIi (Arabidopsis thaliana). Described as above.

B1: AGAMOUS-LIKE24 (protein, UniProt O82794 1-220)
chain: MAREKIRIKKIDNITARQVTFSKRRRGIFKKADELSVLCDADVALIIFSATGKLFEFSSSRMRDILGRYSLHASNINKLMDPPSTHLRLENCNLSRLSKEVEDKTKQLRKLRGEDLDGLNLEELQRLEKLLESGLSRVSEKKGECVMSQIFSLEKRGSELVDENKRLRDKLETLERAKLTTLKEALETESVTTNVSSYDSGTPLEDDSDTSLKLGLPSWE
Regarding B1, the binding result in experiment [1] and in experiment [2] was “no binding” each time.

B2: AGL24 R61S (protein, UniProt O82794 1-220)
chain: MAREKIRIKKIDNITARQVTFSKRRRGIFKKADELSVLCDADVALIIFSATGKLFEFSSSSMRDILGRYSLHASNINKLMDPPSTHLRLENCNLSRLSKEVEDKTKQLRKLRGEDLDGLNLEELQRLEKLLESGLSRVSEKKGECVMSQIFSLEKRGSELVDENKRLRDKLETLERAKLTTLKEALETESVTTNVSSYDSGTPLEDDSDTSLKLGLPSWE
As for B2, the binding entry in experiment [1] and in experiment [2] was “no binding” throughout.
